The other results are listed elsewhere or left out. Most entries show no effect beyond the scatter of the controls.

By UniProt entry, the sequences of proteins in these tests, tags left out. Where a name states a change or a piece, a line headed by the entry shows the natural chain unless it says otherwise.
UniProt Q86X83, whole entry: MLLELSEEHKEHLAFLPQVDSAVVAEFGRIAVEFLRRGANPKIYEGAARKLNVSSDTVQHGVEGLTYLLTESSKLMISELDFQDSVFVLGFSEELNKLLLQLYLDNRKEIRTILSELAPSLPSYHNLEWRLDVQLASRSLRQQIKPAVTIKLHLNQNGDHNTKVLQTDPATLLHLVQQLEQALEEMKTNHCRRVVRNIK
UniProt Q8IZ21: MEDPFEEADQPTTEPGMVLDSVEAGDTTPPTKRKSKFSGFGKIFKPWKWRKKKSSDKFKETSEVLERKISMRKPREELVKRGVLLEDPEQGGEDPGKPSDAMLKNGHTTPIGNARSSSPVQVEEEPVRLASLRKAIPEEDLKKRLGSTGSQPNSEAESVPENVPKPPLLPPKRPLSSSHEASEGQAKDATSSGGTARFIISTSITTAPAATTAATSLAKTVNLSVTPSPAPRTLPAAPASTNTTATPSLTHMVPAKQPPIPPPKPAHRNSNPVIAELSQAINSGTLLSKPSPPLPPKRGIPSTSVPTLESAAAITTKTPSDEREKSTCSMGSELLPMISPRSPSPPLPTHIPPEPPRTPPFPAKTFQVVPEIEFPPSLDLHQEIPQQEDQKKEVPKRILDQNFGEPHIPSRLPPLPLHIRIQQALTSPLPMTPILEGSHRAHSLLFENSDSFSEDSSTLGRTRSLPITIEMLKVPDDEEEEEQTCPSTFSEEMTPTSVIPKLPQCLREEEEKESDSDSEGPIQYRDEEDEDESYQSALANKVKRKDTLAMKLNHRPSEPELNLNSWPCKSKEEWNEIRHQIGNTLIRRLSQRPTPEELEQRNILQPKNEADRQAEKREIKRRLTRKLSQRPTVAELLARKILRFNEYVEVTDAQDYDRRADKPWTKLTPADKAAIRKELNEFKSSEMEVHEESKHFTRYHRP
UniProt Q8IYN2: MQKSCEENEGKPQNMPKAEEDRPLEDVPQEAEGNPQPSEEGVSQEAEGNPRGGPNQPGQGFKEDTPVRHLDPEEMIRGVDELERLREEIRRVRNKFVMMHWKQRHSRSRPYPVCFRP
UniProt Q86Y56: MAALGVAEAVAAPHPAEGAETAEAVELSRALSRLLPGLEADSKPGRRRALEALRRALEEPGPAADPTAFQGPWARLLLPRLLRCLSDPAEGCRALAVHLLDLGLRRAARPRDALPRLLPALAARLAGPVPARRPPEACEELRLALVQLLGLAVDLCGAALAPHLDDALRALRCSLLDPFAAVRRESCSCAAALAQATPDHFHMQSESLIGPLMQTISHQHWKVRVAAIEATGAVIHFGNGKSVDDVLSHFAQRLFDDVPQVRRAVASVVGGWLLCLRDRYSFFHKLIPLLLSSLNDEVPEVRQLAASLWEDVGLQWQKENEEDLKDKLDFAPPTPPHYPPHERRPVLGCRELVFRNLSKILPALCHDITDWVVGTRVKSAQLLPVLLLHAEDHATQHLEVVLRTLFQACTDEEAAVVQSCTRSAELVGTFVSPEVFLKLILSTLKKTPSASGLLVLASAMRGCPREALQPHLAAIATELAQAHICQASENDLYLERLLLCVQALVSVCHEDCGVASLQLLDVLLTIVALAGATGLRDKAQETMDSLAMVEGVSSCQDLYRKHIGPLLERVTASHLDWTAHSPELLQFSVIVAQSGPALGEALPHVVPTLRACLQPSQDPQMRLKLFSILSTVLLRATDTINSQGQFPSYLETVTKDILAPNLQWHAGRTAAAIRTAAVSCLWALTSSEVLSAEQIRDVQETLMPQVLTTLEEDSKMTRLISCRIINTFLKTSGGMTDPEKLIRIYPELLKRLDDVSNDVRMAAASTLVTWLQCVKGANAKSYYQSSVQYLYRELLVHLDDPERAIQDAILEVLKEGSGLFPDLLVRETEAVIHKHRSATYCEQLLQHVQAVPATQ
UniProt Q8IZH2: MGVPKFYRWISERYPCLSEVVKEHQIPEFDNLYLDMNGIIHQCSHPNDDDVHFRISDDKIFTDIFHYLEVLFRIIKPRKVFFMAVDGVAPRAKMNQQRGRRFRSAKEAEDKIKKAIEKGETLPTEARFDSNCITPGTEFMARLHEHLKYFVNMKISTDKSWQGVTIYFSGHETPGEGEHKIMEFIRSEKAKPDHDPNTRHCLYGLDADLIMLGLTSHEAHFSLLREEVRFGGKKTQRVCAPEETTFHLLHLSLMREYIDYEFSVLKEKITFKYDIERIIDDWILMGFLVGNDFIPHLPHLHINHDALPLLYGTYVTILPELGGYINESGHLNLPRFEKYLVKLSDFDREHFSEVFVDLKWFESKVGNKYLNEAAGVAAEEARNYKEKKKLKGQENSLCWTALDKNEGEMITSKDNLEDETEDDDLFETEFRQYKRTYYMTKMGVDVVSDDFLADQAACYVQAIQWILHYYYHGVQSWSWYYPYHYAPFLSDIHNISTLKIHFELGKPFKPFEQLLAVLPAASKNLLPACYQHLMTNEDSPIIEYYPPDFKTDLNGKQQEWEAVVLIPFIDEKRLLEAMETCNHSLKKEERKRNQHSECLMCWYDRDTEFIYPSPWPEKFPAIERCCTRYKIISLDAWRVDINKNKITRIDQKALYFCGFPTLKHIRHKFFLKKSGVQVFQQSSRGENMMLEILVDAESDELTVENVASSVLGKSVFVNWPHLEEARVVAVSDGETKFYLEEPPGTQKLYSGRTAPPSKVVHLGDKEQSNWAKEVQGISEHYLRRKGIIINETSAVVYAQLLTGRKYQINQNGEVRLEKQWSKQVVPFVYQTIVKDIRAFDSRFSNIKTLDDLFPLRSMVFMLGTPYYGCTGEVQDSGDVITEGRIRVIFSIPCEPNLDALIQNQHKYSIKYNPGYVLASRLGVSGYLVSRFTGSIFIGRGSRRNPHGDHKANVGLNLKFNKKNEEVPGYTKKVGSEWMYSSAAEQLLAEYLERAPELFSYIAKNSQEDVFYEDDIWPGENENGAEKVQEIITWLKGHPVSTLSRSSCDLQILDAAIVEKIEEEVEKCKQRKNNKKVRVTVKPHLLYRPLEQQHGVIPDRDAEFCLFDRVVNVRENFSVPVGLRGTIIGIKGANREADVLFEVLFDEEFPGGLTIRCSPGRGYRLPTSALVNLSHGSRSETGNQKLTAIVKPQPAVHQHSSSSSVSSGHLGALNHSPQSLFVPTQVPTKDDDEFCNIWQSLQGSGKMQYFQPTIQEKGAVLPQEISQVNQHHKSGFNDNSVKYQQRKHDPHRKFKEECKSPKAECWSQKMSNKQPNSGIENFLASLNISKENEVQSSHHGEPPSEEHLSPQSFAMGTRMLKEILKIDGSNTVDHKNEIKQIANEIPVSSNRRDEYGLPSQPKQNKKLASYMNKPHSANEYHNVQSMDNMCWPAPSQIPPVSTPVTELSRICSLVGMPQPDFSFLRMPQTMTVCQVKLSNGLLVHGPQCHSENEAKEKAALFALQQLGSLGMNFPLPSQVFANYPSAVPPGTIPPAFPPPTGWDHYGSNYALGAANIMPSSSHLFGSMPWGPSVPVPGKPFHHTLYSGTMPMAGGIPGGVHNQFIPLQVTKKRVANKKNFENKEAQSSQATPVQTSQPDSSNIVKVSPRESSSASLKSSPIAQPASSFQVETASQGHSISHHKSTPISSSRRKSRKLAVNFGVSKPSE
UniProt Q86YD1: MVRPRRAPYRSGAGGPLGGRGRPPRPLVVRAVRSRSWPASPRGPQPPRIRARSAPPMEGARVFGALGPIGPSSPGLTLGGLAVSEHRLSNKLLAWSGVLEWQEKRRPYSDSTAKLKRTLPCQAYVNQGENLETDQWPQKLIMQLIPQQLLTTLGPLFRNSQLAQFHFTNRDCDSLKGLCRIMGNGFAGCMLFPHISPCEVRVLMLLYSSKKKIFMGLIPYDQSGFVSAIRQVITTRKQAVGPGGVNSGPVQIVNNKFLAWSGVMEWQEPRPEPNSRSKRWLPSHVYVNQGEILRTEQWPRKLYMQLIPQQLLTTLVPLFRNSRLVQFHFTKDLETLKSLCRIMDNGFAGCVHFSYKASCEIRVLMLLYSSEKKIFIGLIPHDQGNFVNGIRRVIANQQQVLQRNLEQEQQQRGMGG
UniProt Q8IY63: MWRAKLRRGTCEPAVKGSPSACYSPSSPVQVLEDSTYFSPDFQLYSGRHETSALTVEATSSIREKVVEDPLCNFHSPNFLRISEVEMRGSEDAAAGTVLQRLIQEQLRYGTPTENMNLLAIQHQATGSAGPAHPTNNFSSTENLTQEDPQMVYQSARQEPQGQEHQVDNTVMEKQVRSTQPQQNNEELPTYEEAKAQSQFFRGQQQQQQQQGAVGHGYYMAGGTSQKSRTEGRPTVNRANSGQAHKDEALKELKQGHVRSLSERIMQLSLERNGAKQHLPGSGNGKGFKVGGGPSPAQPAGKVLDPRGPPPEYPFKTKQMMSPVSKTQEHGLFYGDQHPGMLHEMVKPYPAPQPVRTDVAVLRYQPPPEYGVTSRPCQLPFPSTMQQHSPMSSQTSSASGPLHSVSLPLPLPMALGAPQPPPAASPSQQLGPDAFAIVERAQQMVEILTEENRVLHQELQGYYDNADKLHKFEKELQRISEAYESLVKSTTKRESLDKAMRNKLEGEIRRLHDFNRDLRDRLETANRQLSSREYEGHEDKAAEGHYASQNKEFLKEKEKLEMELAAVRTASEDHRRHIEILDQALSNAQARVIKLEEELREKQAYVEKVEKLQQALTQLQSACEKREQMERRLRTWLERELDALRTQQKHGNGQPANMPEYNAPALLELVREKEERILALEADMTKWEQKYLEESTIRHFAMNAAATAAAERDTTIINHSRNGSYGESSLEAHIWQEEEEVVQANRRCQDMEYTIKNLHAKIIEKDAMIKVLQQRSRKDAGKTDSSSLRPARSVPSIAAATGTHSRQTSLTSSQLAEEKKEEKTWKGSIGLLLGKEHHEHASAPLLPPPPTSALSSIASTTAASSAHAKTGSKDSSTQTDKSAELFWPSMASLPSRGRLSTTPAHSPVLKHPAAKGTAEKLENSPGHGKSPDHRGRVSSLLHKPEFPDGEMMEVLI
UniProt Q8IWY9: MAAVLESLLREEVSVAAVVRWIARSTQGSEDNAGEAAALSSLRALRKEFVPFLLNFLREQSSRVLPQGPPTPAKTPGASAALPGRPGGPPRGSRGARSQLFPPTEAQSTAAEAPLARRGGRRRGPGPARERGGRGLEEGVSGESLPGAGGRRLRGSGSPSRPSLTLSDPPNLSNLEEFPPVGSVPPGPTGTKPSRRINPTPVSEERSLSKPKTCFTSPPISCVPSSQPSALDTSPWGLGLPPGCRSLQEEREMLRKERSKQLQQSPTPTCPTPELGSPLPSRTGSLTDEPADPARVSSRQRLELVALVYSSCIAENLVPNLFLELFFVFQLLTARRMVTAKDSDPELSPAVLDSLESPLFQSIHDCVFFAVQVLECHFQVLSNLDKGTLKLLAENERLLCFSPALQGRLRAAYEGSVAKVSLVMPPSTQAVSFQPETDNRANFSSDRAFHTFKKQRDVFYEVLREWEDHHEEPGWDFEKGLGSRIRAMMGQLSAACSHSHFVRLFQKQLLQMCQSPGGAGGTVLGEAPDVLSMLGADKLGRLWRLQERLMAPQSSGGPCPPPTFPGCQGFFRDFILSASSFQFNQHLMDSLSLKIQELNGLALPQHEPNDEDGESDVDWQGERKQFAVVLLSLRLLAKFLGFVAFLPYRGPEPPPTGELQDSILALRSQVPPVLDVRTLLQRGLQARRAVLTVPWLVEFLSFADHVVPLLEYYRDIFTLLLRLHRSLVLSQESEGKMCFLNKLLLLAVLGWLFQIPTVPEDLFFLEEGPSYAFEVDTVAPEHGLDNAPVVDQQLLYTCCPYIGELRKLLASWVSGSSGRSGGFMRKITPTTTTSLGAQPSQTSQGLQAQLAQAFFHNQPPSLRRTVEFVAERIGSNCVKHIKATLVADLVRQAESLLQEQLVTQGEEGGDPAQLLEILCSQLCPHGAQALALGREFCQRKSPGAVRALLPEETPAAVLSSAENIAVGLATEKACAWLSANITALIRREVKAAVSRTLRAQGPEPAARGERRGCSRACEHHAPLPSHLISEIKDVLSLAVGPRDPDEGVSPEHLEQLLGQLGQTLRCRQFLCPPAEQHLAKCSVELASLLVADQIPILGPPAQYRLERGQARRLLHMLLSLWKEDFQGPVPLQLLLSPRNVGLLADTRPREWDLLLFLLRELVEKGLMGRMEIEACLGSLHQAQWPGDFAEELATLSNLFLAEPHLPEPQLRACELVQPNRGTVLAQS

Compound in this assay: CN[C@@H]1C[C@H]2O[C@@](C)([C@@H]1OC)n1c3ccccc3c3c4c(c5c6ccccc6n2c5c31)C(=O)NC4 [staurosporine]
Put plainly: log2 fold change of tryptic peptide abundance, ligand vs vehicle (limited proteolysis) (log2 ratio); higher = more trypsin-susceptible (destabilized). Conditions: ligand concentration: 20 uM; sample: K562 cleared lysate; digestion: 4 min, 22 C (HT-PELSA RT4min, Orbitrap Astral).
For the target “COMMD2 (peptide sequence: LHLNQNGDHNTK, peptide start residue: 152) (UniProt Q86X83)”, the log2 fold change is -0.257. Then “PHACTR4 (peptide sequence: RPLSSSHEASEGQAK, peptide start residue: 173) (UniProt Q8IZ21)”, with 0.419; and “TCEAL8 (peptide sequence: HLDPEEMIR, peptide start residue: 69) (UniProt Q8IYN2)”, with 0.161; and “UniProt Q86Y56 (peptide sequence: LILSTLKK, peptide start residue: 439)”, with 0.401. On to “XRN1 (peptide sequence: QPNSGIENFLASLNISK, peptide start residue: 1313) (UniProt Q8IZH2)”, for which the log2 fold change was -0.674. In the case of “PTOV1 (peptide sequence: WLPSHVYVNQGEILR, peptide start residue: 280) (UniProt Q86YD1)” it was 0.366; in that of “AMOTL1 (peptide sequence: VLHQELQGYYDNADKLHKFEK, peptide start residue: 454) (UniProt Q8IY63)”, -0.233. With “MRPL41 (peptide sequence: YGFEPTQEGK, peptide start residue: 117) (UniProt Q8IXM3)”, the log2 fold change was -0.137. With “CDAN1 (peptide sequence: VLPQGPPTPAK, peptide start residue: 64) (UniProt Q8IWY9)”, the log2 fold change came out at 0.268.
